Test results: PubChem BioAssay AID1347076 (National Center for Advancing Translational Sciences (NCATS), 2019)
In all, about 400,000 compounds went through this assay and about 13,000 (3.2%) were called active. This list was built around the results that the source calls inconclusive (neither active nor inactive); the mix of calls is not that of the screen. Calls come from the whole dose curve; as a rule, active = well fitted cell-killing curve with a large enough effect; inconclusive = small, poorly fitted or top-dose-only effect, or effect the other way; inactive = flat fitted curve, though single readings scatter. Potencies of inconclusive entries are doubtful fits and often do not repeat.

Assay: qHTS assay for MDR1-selective chemotherapeutics: Primary screen using the drug-selected MDR subline cells KB-V1; note: nearly all actives have a fitted effect of over 60% in size
Conditions: KB-V1 MDR cells viability, CellTiter-Glo, 72 h; series mostly up to 46.1 µM
Procedure, shortened: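 Following 72 h at 37 degrees C with compound, KB-V1 cell viability was read by CellTiter-Glo luminescence, medium being phenol-red-free DMEM plus 10% FBS; concentration-response parameters came from normalized, curve-fitted qHTS data.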
Potency is the fitted concentration of half-maximal effect.

Row | Structure (SMILES) | Potency
1 | N#Cc1c(NC(=O)COC(=O)C2CC3C=CC2C3)oc(-c2ccccc2)c1-c1ccccc1 (stereo unspecified) | inactive
2 | CCc1ccc([C@@H]2CC(=O)[C@@H]3CN(S(=O)(=O)c4ccccc4C)[C@H](c4ccc(Cl)cc4)C[C@@H]3N2S(=O)(=O)c2ccc(C)cc2)cc1 | inactive
3 | Cc1ccc(C(=O)Nc2ccc3oc(-c4ccc(C(C)(C)C)cc4)nc3c2)cc1 | inactive
4 | O=c1[nH]nc(Cc2ccc3ccccc3n2)c2ccccc12 | inconclusive: 20.6 µM [cytotoxic, single point]
5 | CCOC(=O)C1CCN(C(=O)CC2C(=O)N(Cc3ccccc3)C(C)c3nc4ccccc4n32)CC1 (stereo unspecified) | inconclusive: 13 µM [cytotoxic, partial curve]
6 | CC(C)=CCN1CCN(Cc2cnc(-c3ccccc3)s2)CC1CCO (stereo unspecified) | inconclusive: 4.61 µM [cytotoxic, partial curve]
7 | COc1cc(OC)c(/C=C/c2ccnc3ccccc23)c(OC)c1 | inactive
8 | Cc1[nH]n(-c2ccccc2)c(=O)c1/C=N/N(c1ccccc1)c1ccccc1 | inconclusive: 20.6 µM [cytotoxic, partial curve, poor fit]
9 | Nc1c(C(=O)OCC2CCCO2)c2nc3ccccc3nc2n1-c1ccc2c(c1)OCCO2 (stereo unspecified) | inactive
10 | CCOc1ccc(S(=O)(=O)Nc2ccc(C(=O)NCC3(N4CCCCC4)CCCCC3)cc2)cc1 | inactive
11 | Cc1cccc(C(=O)N[C@H](C(=O)Nc2ncc(C)s2)C(C)C)c1 | active: 16.4 µM
12 | CCOC(=O)[C@]12CCCC=C1N(CCc1ccc(OC)c(OC)c1)C(=O)[C@H](CC(=O)NCC13CC4CC(CC(C4)C1)C3)C2 | inconclusive: 18.4 µM [cytotoxic, partial curve]
13 | Cc1ccc(N(CC(=O)NC(C)(C)C)C(=O)CCC(=O)Nc2ccccn2)c(C)c1 | inconclusive: 20.6 µM [cytotoxic, single point]
14 | Cc1ccc(NC(=O)c2cc(C)nc3c2c(C)nn3-c2cccc(Cl)c2C)c(C)c1 | inactive
15 | Cc1cccc(Cn2c(=O)n(CCc3ccccc3)c(=O)c3c(C)c(C)sc32)c1 | inactive
16 | N/C(=N\OC(=O)CCC1CCCC1)c1ccncc1 | inconclusive: 20.6 µM [rising, partial curve, poor fit]
17 | COc1ccc(S(=O)(=O)N2CCOC23CCN(S(=O)(=O)c2cccs2)CC3)cc1 | inconclusive: 18.4 µM [cytotoxic, single point]
18 | O=C(O)C[C@H]1c2cc(C(F)(F)F)ccc2S(=O)(=O)N1C1CCCC1 | inactive
19 | O=C(NCCCc1ccccc1)C1CCN(S(=O)(=O)c2ccc(F)cc2)CC1 | inconclusive: 16.4 µM [cytotoxic, partial curve, poor fit]
20 | COC(=O)c1sccc1NC(=S)Nc1cccc(F)c1 | inactive
21 | O=S(=O)(c1ccccc1)N1CCN(Cc2ccccc2)c2ccccc21 | active: 18.4 µM
22 | COc1ccccc1C1NC(=O)NC(C)=C1C(=O)OC1CCCC(C)C1 (stereo unspecified) | inactive
23 | COc1cnc(-c2ccccn2)nc1N(C)C | active: 20.6 µM

Row | Structure (SMILES) | Potency
24 | CCCCCCCCCCS(=O)(=O)N/N=C/c1ccc(O)cc1 | inactive
25 | Cc1ccc(C(=O)NC(NCc2ccco2)C(Cl)(Cl)Cl)cc1 (stereo unspecified) | inconclusive: 20.6 µM [cytotoxic, single point]
26 | Cc1ccc(C(C)(C)C)c(OCCN2CCCC2)c1 | inconclusive: 29.1 µM [cytotoxic, single point]
27 | O=C(c1ccc(Cn2cc([N+](=O)[O-])cn2)o1)N1N=C(C(F)F)CC1(O)C(F)F (stereo unspecified) | inconclusive: 32.6 µM [cytotoxic, single point]
28 | O=C(NNC(=S)NC1CCCCC1)c1ccc2c(c1)OCO2 | inactive
29 | Clc1ccc(N2CCN(c3ncnc4c3oc3ccccc34)CC2)cc1 | inconclusive: 10.3 µM [cytotoxic, partial curve]
30 | CNC(=O)c1cc(Nc2nnc(-c3ccc(O)cc3)c3ccccc23)ccc1OC | inactive
31 | Fc1cc(Br)ccc1Nc1c2c(nc3nc(-c4cccs4)nn13)CCCC2 | inactive
32 | CCc1cccc(NC(=O)c2cc(S(=O)(=O)N(C)C)ccc2N2CCCC2)c1 | inconclusive: 23.1 µM [cytotoxic, single point]
33 | O=C1CC(NS(=O)(=O)c2ccc3ccccc3c2)CN1c1ccccc1 (stereo unspecified) | inactive
34 | O=C(Nc1nc2ccc(F)cc2s1)C1=COCCO1 | active: 11.6 µM
35 | CN(C(=O)COC(=O)c1cc2ccccc2oc1=O)C1CCCCC1 | inconclusive: 13 µM [rising, partial curve, poor fit]
36 | Cc1nc2ccc([N+](=O)[O-])cc2c(=O)n1Cc1cccc(Br)c1 | inconclusive: 4.11 µM [cytotoxic, full curve, poor fit]
37 | O=C(O)c1ccccc1C(=O)Nc1ccc(Oc2cccc3ccccc23)cc1 | inconclusive: 2.91 µM [rising, full curve, poor fit]
38 | CCc1cccc(C)c1NC(=O)CN(C)Cc1ccc(Br)cc1 | inconclusive: 20.6 µM [cytotoxic, single point]
39 | CS(=O)(=O)N(CC(=O)N1CCN(Cc2ccc3c(c2)OCO3)CC1)Cc1ccc(Cl)cc1 | inconclusive: 20.6 µM [cytotoxic, single point]
40 | CN(CC(=O)Nc1ccc(F)cc1)CC(=O)NC1CCCCC1 | inactive
41 | COc1ccc(C(=O)Cn2c(NCCO)nc3ccccc32)cc1 | inactive
42 | CC1CC(C)CN(S(=O)(=O)c2cccc(C(=O)OCCN3CCCC3=O)c2)C1 (stereo unspecified) | inconclusive: 9.2 µM [cytotoxic, partial curve]
43 | CCCCc1cc(=O)oc2cc(C)c(CN3CCCC3)c(O)c12 | active: 18.4 µM
44 | Nn1c(SCC(=O)NC2CCCCC2)nnc1-c1ccco1 | inconclusive: 23.1 µM [rising, single point]
45 | COc1cccc(NC(=O)c2ccccc2-c2nc(-c3ccccc3)no2)c1 | inconclusive: 16.4 µM [cytotoxic, single point]
46 | CCCCn1c(N)c(N(CC)C(=O)CSc2nnnn2-c2cc(C)ccc2C)c(=O)[nH]c1=O | inconclusive: 29.1 µM [rising, single point]

Reprinted at random: four compounds from above
Row | Structure (SMILES) | Potency
32 | CCc1cccc(NC(=O)c2cc(S(=O)(=O)N(C)C)ccc2N2CCCC2)c1 | inconclusive: 23.1 µM [cytotoxic, single point]
26 | Cc1ccc(C(C)(C)C)c(OCCN2CCCC2)c1 | inconclusive: 29.1 µM [cytotoxic, single point]
29 | Clc1ccc(N2CCN(c3ncnc4c3oc3ccccc34)CC2)cc1 | inconclusive: 10.3 µM [cytotoxic, partial curve]
40 | CN(CC(=O)Nc1ccc(F)cc1)CC(=O)NC1CCCCC1 | inactive
